Reference: PubChem BioAssay AID493014 (National Center for Advancing Translational Sciences (NCATS), 2011)
In all, about 340,000 compounds went through this assay and about 170 (0.05%) were called active. This list was built around the results that the source calls inconclusive (neither active nor inactive); the mix of calls is not that of the screen. Calls follow the shape of the dose curve; as a rule, active = well fitted inhibition curve with a large enough effect in the signal ratio, with a control signal flat (not every such curve was filed as active); inconclusive = small, poorly fitted or top-dose-only effect, or effect the other way, or a change in a side signal; inactive = flat fitted curve, though single readings scatter; the % refers to the signal ratio. Where the call is inconclusive, the potency comes from a doubtful curve fit.

assay: qHTS Assay to Find Inhibitors of Chronic Active B-Cell Receptor Signaling; conditions: ABC-DLBCL IkBa-CBG/CBR reporter, luminescence ratio (green luciferase fused to IkBa over red control in TMD8 lymphoma cells), 4 h; activity change, negative = inhibition: at 46.1 µM (top of the series) unless noted;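 as to activity change, negative = inhibition: plate controls were basal doxycycline-induced cells for no effect and cells given 10 µM MG132 for full effect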
How it was run: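 Cell line TMD8 (human ABC DLBCL), stably expressing tet-inducible CBG68-IkBa fusion and CBR; IMDM/0.5% FBS; cpd up to 46 uM; dox induction, 4 h, 37C/5% CO2; dual luminescence; green/red ratio; MG132 control.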
Potency is read from the fitted curve at half-maximal effect.

| Structure (SMILES) | activity change, negative = inhibition | Potency |
| --- | --- | --- |
| COc1ccc(N2CCN(C(=O)c3c(-c4c(F)cccc4Cl)noc3C)CC2)cc1 | inactive: -0.292% | – |
| COc1ccc(N2CCN(C(=O)Cc3cccs3)CC2)cc1 | inconclusive: -3.65% | – |
| CCC(NC(=O)Nc1nnc(C(F)(F)F)s1)(C(F)(F)F)C(F)(F)F | – | inconclusive: 1.26 µM [rising, full curve, poor fit] |
| O=C(Nc1nnc(C2CC2)s1)c1cc(-c2ccccc2)nn1-c1ccccc1 | – | inconclusive: 17.8 µM [falling, partial curve, poor fit] |
| COc1cccc(/C=N/Nc2nc(Nc3ccc([N+](=O)[O-])cc3)nc(N3CCCC3)n2)c1O | inconclusive: 18.2% | – |
| Cc1ccnc(NC(=O)c2ccc(N3C(=O)CCC3=O)cc2)c1 | – | inconclusive: 22.4 µM [falling, single point] |
| O=C(NCCc1ccccc1)c1ccccc1NC(=O)C1CCCCC1C(=O)O (stereo unspecified) | – | inconclusive: 25.1 µM [falling, single point] |
| COc1ccc(-c2cc(C(C)=O)c(C)n2CCC(=O)Nc2cc(C)ccc2OC)cc1 | – | inconclusive: 3.98 µM [falling, full curve, poor fit] |
| COC(=O)Nc1[nH]ncc1[N+](=O)[O-] | inactive: 3.45% | – |
| Cc1ccc(N=C2NC(=O)/C(=C/c3cccnc3)S2)c(C)c1 | inconclusive: 7.74% | – |
| NNC(=O)C(Cc1cnc[nH]1)NC(=O)OCc1ccccc1 (stereo unspecified) | inconclusive: 5.73% | – |
| O=[N+]([O-])c1ccc(Oc2cccc(C(F)(F)F)c2)nc1 | inconclusive: 18.6% | – |
| CC(O)c1nc2ccccc2n1C1CCCCC1 (stereo unspecified) | inconclusive: 5.82% | – |
| Cc1ccc(NC(c2ccccc2)c2nc3ccccc3[nH]c2=O)cc1 (stereo unspecified) | inconclusive: -0.824% | – |
| Clc1ccc(-c2[nH]ncc2N=Nc2ccccc2)cc1 | – | inconclusive: 7.08 µM [rising, partial curve, poor fit] |
| COc1cc(/C=N/Nc2ncc(C(F)(F)F)cc2Cl)cc(OC)c1O | inconclusive: -0.548% | – |
| COc1ccc(Br)cc1C(=O)Nc1ccc(C(=O)NCC(C)C)cc1 | inconclusive: 7.54% | – |
| CC(=O)c1ccc(OCc2cccc(C(F)(F)F)c2)cc1O | inactive: 14.8% | – |
| CC(=O)N1CCN(c2ccc(NC(=O)c3ccc([N+](=O)[O-])o3)cc2Cl)CC1 | – | inconclusive: 10 µM [falling, partial curve] |
| CCC(c1nnnn1CCc1ccccc1)N(Cc1ccco1)Cc1cc2cc(C)cc(C)c2[nH]c1=O (stereo unspecified) | inactive: 11.8% | – |
| O=C(O)c1ccc(/C=N/Nc2ccc(F)cc2F)cc1 | – | inconclusive: 31.6 µM [rising, partial curve] |
| Cc1[nH]c2ccc(F)cc2c1CCN(Cc1cccnc1)C(=S)Nc1ccccc1 | inactive: -11.6% | – |
| COc1ccc(NC(=O)c2ccc(NC(=O)CSc3nccc(=O)[nH]3)cc2)cc1 | inconclusive: -1.87% | – |
| C/C(=N\Nc1nc2ccccc2s1)c1ccc(Br)s1 | inconclusive: 17.4% | – |
| CC(C)OCCCNC(=S)N1CCC(C(=O)c2ccc3c(c2)OCCO3)CC1 | – | inconclusive: 35.5 µM [falling, single point] |
| CSc1ccc(CN2CCC(C(=O)NCc3ccc(C)cc3)CC2)cc1 | inconclusive: 3.57% | – |

A section taken from the entries so far, for reference:

| Structure (SMILES) | activity change, negative = inhibition | Potency |
| --- | --- | --- |
| CC(=O)c1ccc(OCc2cccc(C(F)(F)F)c2)cc1O | inactive: 14.8% | – |
| CC(=O)N1CCN(c2ccc(NC(=O)c3ccc([N+](=O)[O-])o3)cc2Cl)CC1 | – | inconclusive: 10 µM [falling, partial curve] |

Additional compounds follow.

| Structure (SMILES) | activity change, negative = inhibition | Potency |
| --- | --- | --- |
| CNS(=O)(=O)c1cccc(C(=O)NCC(c2cccs2)N(C)C)c1 (stereo unspecified) | inactive: -17.8% | – |
| CN(C)CCCN(C(=O)c1ccco1)c1nc(-c2ccc(Cl)cc2)cs1 | – | inconclusive: 11.2 µM [falling, partial curve, poor fit] |
| O=C(N/N=C/c1c(O)n(-c2ccc(Cl)cn2)c(=O)c2ccccc12)C1CC1 | – | inconclusive: 20.6 µM [falling, single point] |
| COc1ccccc1NC(=O)/C=C\C(=O)O | – | inconclusive: 31.6 µM [rising, single point] |
| O=[N+]([O-])c1ccc(Sc2nnnn2-c2ccccc2)c(Cl)c1 | – | inconclusive: 20.6 µM [falling, single point] |
| O=C(CC12CC3CC(CC(C3)C1)C2)Nc1c(F)cccc1F | inactive: -2.99% | – |
| O=C(NCC1CCCO1)C(=O)N/N=C/c1cc(Cl)ccc1O (stereo unspecified) | inactive: -2.42% | – |
| COc1cc(CNc2nc(C)c([N+](=O)[O-])c(C)c2C#N)cc(OC)c1 | inconclusive: -0.897% | – |
| CC(C)/C=C1\CC/C(=C\c2cccnc2)C1=O | – | inconclusive: 25.1 µM [falling, single point] |
| CCCN(C(=O)c1cccs1)c1c(N)n(Cc2ccccc2)c(=O)[nH]c1=O | inconclusive: 4.08% | – |
| CC(=O)c1c(OC(=O)c2ccco2)c2ccccc2n1C | inconclusive: -9.1% | – |
| CCc1nc(SCC(=O)N2CCCC2)c2ccccc2n1 | – | inconclusive: 6.51 µM [activator, partial curve, poor fit] |
| COc1cccc(-c2nn(-c3ccccc3)cc2CN(C)Cc2ccno2)c1 | inactive: -9.05% | – |
| CCCOc1ccc(N2C(=O)CC(N3CCN(c4ccc([N+](=O)[O-])cc4)CC3)C2=O)cc1 (stereo unspecified) | inconclusive: -21.7% | – |
| COc1ccc(CSC(=N)N)cc1[N+](=O)[O-] | – | inconclusive: 29.1 µM [falling, single point] |
| COc1ccc(NC(=O)CSc2nnc3ccc(-c4ccncc4)nn23)cc1OC | – | inconclusive: 35.5 µM [falling, single point] |
| NC(=O)c1ccsc1NC(=O)COC(=O)c1c(F)cccc1Cl | – | inconclusive: 20.6 µM [falling, partial curve] |
| Cc1ccc(CSCC(=O)NCc2ccco2)cc1 | inactive: 6.69% | – |
| CN(C)c1ccc(/C=C2\Oc3ccc(C#Cc4cccc(N)c4)cc3C2=O)cc1 | inconclusive: 7.75% | – |
| CN(C)C(CNC(=O)c1cccc(C#N)c1)c1ccco1 (stereo unspecified) | inconclusive: 4.33% | – |
| Cc1ccc(Nc2nc3c(c(=O)[nH]2)CCCC3)cc1 | inactive: 12.3% | – |
| CC(=O)Nc1ccc(N/C=C/C(=O)c2ccc(C)o2)cc1 | inconclusive: 7.2% | – |
| NC(=O)C(c1ccc(Cl)cc1)c1ncc(C(F)(F)F)cc1Cl (stereo unspecified) | inconclusive: -28.4% | – |
| O=C(c1ccco1)N1CCc2[nH]nc(-c3ccccc3)c2C1 | inconclusive: -8.54% | – |
| Cn1c(=O)cc(NCCc2ccccc2)[nH]c1=O | inconclusive: 13.3% | – |
